In the test the test system is L1210 leukemia ip in BDF1 mice, survival T/C. The test is described as follows: NCI In Vivo Anticancer Drug Screen. Data for tumor model L1210 Leukemia (intraperitoneal) in B6D2F1 (BDF1) mice. The note with it: T/C endpoint: mean survival time, higher T/C = longer survival.
The mark [1] stands for this setting: dose: 100.0 mg/kg/injection, schedule: Q01DX009 (ip), vehicle: other.

The list shows only some results of the screen, not a fair sample: it gathers tests that were run many times, whatever their T/C, doses with no T/C, and many T/C values between a quarter and a half above the control. Other doses and runs of a compound stand elsewhere. T/C is the treated group as % of the vehicle group. Some entries give survivors of the animals treated and no T/C: the source files T/C as zero there, which appears to mark a toxic dose or a test without result, not a measured value. Some survivor counts are full or nearly so, which does not show that the dose was tolerated: the source hardly ever lists a survival T/C far under the control, and the zero likely stands for such cases as well. Survivors were counted at the toxicity check, usually on the fifth day, unless a day is given; later deaths do not show. Schedules are NCI's codes, read here as Q, the interval in days (D) or hours (H), X, the number of doses.

With `CC12CCC(C(=N/O)/C1=N\O)C2(C)C` (stereo not drawn), the survivor count is 4 of 6 (dose: 100.0 mg/kg/injection, schedule: Q01DX009 (ip), vehicle: Klucel (hydroxypropylcellulose) (HPC)); 5 of 6 (dose: 200.0 mg/kg/injection, schedule: Q04DX003 (ip), vehicle: Klucel (hydroxypropylcellulose) (HPC)); 1 of 6 (dose: 400.0 mg/kg/injection, schedule: Q04DX003 (ip), vehicle: Klucel (hydroxypropylcellulose) (HPC)).

Turning to `CC(Br)C1(c2cccc([N+](=O)[O-])c2)OCCO1` (stereo not drawn), the survivor count is given as 1 of 6 under setting [1]; 0 of 6 (dose: 200.0 mg/kg/injection, schedule: Q01DX009 (ip), vehicle: other); 0 of 6 (dose: 400.0 mg/kg/injection, schedule: Q01DX009 (ip), vehicle: other).

Take `CCCCCCCCCCP(=O)(CCCC)CCCC`: the survivor count is, setting by setting: (dose: 25.0 mg/kg/injection, schedule: Q01DX009 (ip), vehicle: Klucel (hydroxypropylcellulose) (HPC)) 6 of 6; (dose: 50.0 mg/kg/injection, schedule: Q01DX009 (ip), vehicle: Klucel (hydroxypropylcellulose) (HPC)) 6 of 6; (dose: 200.0 mg/kg/injection, schedule: Q01DX009 (ip), vehicle: Klucel (hydroxypropylcellulose) (HPC)) 5 of 6; (dose: 400.0 mg/kg/injection, schedule: Q01DX009 (ip), vehicle: Klucel (hydroxypropylcellulose) (HPC)) 1 of 5.

In the case of `CCCN(CCC)CCCCN(CCC)CCCN(CCC)CCC`, the survivor count (dose: 400.0 mg/kg/injection, schedule: Q01DX001 (ip), vehicle: saline) was 0 of 4.

With `CC1([N+](=O)[O-])COP(=O)(O)OC1` (stereo not drawn), the survivor count (dose: 100.0 mg/kg/injection, schedule: Q01DX001 (ip), vehicle: saline) is 4 of 4.

On to `CC(C)(C)NP(=O)(NC(C)(C)C)c1ccc([N+](=O)[O-])cc1`, for which, under “dose: 200.0 mg/kg/injection, schedule: Q04DX003 (ip), vehicle: acetone”, the survivor count is recorded as 6 of 6.

In the case of `O=S(=O)(F)c1cc(Cl)ccc1C[P+](c1ccccc1)(c1ccccc1)c1ccccc1`, the survivor count (dose: 40.0 mg/kg/injection, schedule: Q04DX003 (ip), vehicle: saline) is recorded as 4 of 6.

As for `C=CCN1C(=O)C(c2ccccc2)C2(CCN(C)CC2)C1=O` (stereo not drawn), the survivor count is, setting by setting: (dose: 200.0 mg/kg/injection, schedule: Q01DX001 (ip), vehicle: Klucel (hydroxypropylcellulose) (HPC)) 1 of 6; (dose: 400.0 mg/kg/injection, schedule: Q01DX001 (ip), vehicle: Klucel (hydroxypropylcellulose) (HPC)) 0 of 6.

As to `Cc1cc2oc(=O)c3c(c2c(O)c1CN1CCOCC1)CCCC3`, the survivor count (dose: 200.0 mg/kg/injection, schedule: Q01DX001 (ip), vehicle: carboxymethylcellulose (CMC)) is 4 of 4.

Regarding `CCn1c2ccccc2c2cc(C=O)ccc21`, the survivor count under setting [1] is reported as 3 of 3.

Source of the values: PubChem BioAssay AID248 (DTP/NCI, 2004).
